PubChem BioAssay AID504764 – Drosophila RNAi Screening Center | 2011
Purpose: 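Knock-downs that raise or lower a Notch target reporter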 (primary screen). Cell system: Drosophila Kc167 cells. Reagent: long dsRNA against Drosophila genes. Timing: about 5 days (4 days dsRNA, then 24 h after transfection). Conditions: transfection of constitutively active membrane-tethered Notch lacking the extracellular domain, read 24 h later. Measured: 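Light from a Notch-responsive E(spl)m3 luciferase reporter under active Notch, with control-promoter and no-Notch reporter wells to normalise; raw counts from paired wells a and b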. Scale: induced reporter light, run 1, well a and induced reporter light, run 1, well b: higher = more light from the Notch target reporter with active Notch; control promoter light, run 1, well a and control promoter light, run 1, well b: higher = more light from the viral control promoter (cell number, transfection, viability); uninduced reporter light, run 1, well a: higher = more light from the Notch target reporter without active Notch. Call rule: 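Wells with low control signal or poorly matching duplicates excluded; duplicates averaged; per source plate, z beyond ±2 for induced/control log2 ratio or beyond ±1.8 for induced/uninduced marks a hit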. Meaning of the calls: active = modifier hit (raised or lowered Notch signal); inactive = not a hit.
In all, the deposit lists about 22,000 reagents; shown is a random part of those with a known target gene and a result. In the full data, 403 (1.9%) got an active call. 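Unnormalised raw counts per well; ratio z-scores behind the hit calls and whether each hit raises or lowers signal are not deposited.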 A plus sign joins genes that one reagent is predicted to hit. Not stated in the record: the amount of reagent.

target gene	dsRNA	induced reporter light, run 1, well a	induced reporter light, run 1, well b	control promoter light, run 1, well a	control promoter light, run 1, well b	uninduced reporter light, run 1, well a	call
nec	DRSC06769	2.28e5	1.91e5	2.63e5	2.03e5	17810	inactive
Tango11	DRSC03890	63440	47880	52190	61440	7005	active
Tango11	DRSC03892	60560	43285	69320	82080	6325	active
ecd	DRSC08574	62150	57750	91285	1.02e5	4800	inactive
Ptpmeg2	DRSC18277	1.08e5	1.17e5	2.10e5	1.45e5	9280	inactive
Ptpmeg2	DRSC18278	1.10e5	1.23e5	2.42e5	2.51e5	9500	inactive
c(2)M	DRSC01922	3.01e5	2.60e5	2.67e5	2.89e5	19335	inactive
asl	DRSC12319	1.61e5	1.55e5	1.40e5	1.49e5	13150	inactive
MED21	DRSC20932	1.13e5	1.08e5	82405	86620	9285	inactive
CG9692	DRSC11091	1.74e5	1.67e5	2.40e5	1.98e5	9905	inactive
CR40450 + CG32767	DRSC18387	2.31e5	2.28e5	2.88e5	2.76e5	18705	inactive
CG18649	DRSC10334	68655	92730	90285	84260	8685	inactive
CG30020	DRSC06252	1.18e5	1.25e5	1.35e5	1.57e5	12875	inactive
CG30020	DRSC06730	1.81e5	1.50e5	2.19e5	1.98e5	15890	inactive
CG18596	DRSC15355	1.44e5	1.62e5	1.97e5	2.40e5	13305	inactive
sPLA2	DRSC06041	1.91e5	2.05e5	1.91e5	2.16e5	16050	inactive
CG16756	DRSC18115	1.60e5	1.38e5	3.23e5	2.35e5	11742	inactive
pAbp	DRSC07659	17535	15115	32735	31655	1675	inactive
CG6495	DRSC01993	2.39e5	2.14e5	1.78e5	1.81e5	16495	inactive

Reformatted: results already given.
target gene,dsRNA,"induced reporter light, run 1, well a","induced reporter light, run 1, well b","control promoter light, run 1, well a","control promoter light, run 1, well b","uninduced reporter light, run 1, well a",call
nec,DRSC06769,2.28e5,1.91e5,2.63e5,2.03e5,17810,inactive
Tango11,DRSC03890,63440,47880,52190,61440,7005,active
Tango11,DRSC03892,60560,43285,69320,82080,6325,active
ecd,DRSC08574,62150,57750,91285,1.02e5,4800,inactive

Additional results follow:
target gene	dsRNA	induced reporter light, run 1, well a	induced reporter light, run 1, well b	control promoter light, run 1, well a	control promoter light, run 1, well b	uninduced reporter light, run 1, well a	call
CG11060	DRSC06029	78630	76805	63410	61495	5890	inactive
CG15564	DRSC15102	1.18e5	1.05e5	1.48e5	1.70e5	10520	inactive
ana	DRSC07579	70625	72090	37125	31725	7260	inactive
CG9426	DRSC03219	1.44e5	1.58e5	1.43e5	1.37e5	11700	inactive
NimC2	DRSC01881	1.27e5	1.50e5	1.51e5	2.08e5	12130	inactive
CG12637	DRSC17845	1.44e5	1.51e5	2.97e5	3.16e5	12235	inactive
CG17570	DRSC01770	86730	69810	63830	98335	9545	inactive
CG17570	DRSC03754	49305	48335	51085	65935	2725	inactive
CG34315 + Orc3	DRSC07642	1.58e5	1.55e5	1.79e5	1.67e5	13165	inactive
CG13252	DRSC11700	1.76e5	1.29e5	1.44e5	1.20e5	10320	inactive
CG15124	DRSC06546	93170	86605	98375	1.01e5	7985	inactive
CG10853	DRSC08164	1.19e5	1.31e5	1.40e5	1.33e5	6632	inactive
CG5391	DRSC15790	1.61e5	1.43e5	1.95e5	1.88e5	11485	inactive
CG8654	DRSC07231	90165	1.15e5	1.72e5	1.53e5	10342	inactive
wgn	DRSC19998	60025	71650	67675	86890	10880	inactive
